Test results published in paper doi:10.1101/2021.03.16.435663.
These are yes or no findings as the source states them, for the method shown. Binding can be weak; no strength is given.

Protein sequences, listed by entry. Tags and fused reporters are not part of them. Lines headed by an entry give the natural chain unless they say otherwise; changes in a name come on top.
UniProt Q3E7A7: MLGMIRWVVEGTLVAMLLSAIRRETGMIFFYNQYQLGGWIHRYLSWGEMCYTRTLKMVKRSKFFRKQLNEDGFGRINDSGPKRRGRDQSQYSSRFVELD

Target: YKL018C-A/MCO12 (S. cerevisiae) (UniProt Q3E7A7)
Experiment: two-hybrid

B1: Pex35 (protein, UniProt P53293 1-376)
chain: MKHNRPNGTGKAVSGFKQIIRRLLLLLNKKRRKQLVIILKRITQVYGINLVFYVKKWKLKKLQGENIQINDIMPWLRESTILVLLNILYPTLMKFPFLKNHYIHWSSIVGISLMLTKGEVPSWIIAHFLVEAIASKLKIAKLTQWLKKKNFSQGTLIKFQQILVCLAIIVLFAKLDRSSLPFRVLFDHRPFLIDFFTINAIFTVLAVYHRTLKFFFTSGTKSNKNVGGHEVRNFSQYLGVKNHNDWPISSSNLKHVMDRLNEIHEVTIDDNYANINEKIINSYFTKGFFPSLKWTILRQCIEYLFVTKRRRLMGNKLRCIVMLLTFTFVDPTSKMKISPFFAKFFAKSLVNVYLKKYWHCNFGKYILFFLFQLSIM
With B1 the binding was “binds”.
